# Measurements from the supplement of paper PMC10849652.
# Amino acid sequences for entries named in this document (tags omitted). A change or cut given only in a name is not applied to a line headed by its entry.
# UniProt P48730: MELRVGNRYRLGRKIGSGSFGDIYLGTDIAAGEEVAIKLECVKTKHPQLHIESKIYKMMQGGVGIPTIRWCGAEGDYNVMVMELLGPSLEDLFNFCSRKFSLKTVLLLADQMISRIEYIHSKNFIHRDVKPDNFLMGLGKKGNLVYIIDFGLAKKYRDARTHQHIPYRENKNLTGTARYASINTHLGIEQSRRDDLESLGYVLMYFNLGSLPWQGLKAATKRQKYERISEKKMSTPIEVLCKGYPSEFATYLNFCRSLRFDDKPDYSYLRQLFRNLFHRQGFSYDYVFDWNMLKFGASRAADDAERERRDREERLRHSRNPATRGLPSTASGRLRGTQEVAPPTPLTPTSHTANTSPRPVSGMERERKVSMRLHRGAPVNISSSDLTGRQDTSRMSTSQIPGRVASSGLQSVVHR
# UniProt Q99829: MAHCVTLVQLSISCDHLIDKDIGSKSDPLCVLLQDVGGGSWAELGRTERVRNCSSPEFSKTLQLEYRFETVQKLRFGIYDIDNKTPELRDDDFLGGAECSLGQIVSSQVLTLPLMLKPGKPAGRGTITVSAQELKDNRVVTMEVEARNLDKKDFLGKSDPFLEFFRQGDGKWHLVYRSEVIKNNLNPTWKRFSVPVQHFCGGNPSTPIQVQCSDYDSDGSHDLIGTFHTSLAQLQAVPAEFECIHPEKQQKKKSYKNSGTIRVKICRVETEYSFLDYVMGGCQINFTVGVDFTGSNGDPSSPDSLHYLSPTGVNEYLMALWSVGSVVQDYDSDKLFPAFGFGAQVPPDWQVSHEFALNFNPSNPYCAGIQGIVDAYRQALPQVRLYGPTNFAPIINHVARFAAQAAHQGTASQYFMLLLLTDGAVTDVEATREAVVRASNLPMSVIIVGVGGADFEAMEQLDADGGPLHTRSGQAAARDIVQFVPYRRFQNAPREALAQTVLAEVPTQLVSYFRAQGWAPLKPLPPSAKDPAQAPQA
# UniProt O14548: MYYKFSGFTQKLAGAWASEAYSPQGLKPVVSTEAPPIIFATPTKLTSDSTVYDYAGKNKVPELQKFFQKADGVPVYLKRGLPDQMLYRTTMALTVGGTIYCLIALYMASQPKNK
# UniProt Q9Y6M4: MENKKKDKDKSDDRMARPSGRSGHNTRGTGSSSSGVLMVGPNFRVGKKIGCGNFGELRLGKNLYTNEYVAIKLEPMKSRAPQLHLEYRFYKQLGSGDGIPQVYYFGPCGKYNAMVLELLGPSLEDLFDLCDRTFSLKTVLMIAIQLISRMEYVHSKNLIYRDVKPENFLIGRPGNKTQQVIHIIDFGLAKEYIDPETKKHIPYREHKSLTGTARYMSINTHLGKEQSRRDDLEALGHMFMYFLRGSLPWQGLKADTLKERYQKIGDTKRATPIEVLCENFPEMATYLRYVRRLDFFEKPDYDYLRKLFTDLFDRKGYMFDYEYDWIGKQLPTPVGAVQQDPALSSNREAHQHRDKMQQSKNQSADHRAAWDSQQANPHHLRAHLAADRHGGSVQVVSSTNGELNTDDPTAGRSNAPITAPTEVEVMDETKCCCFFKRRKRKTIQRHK
# UniProt Q7Z5Q1: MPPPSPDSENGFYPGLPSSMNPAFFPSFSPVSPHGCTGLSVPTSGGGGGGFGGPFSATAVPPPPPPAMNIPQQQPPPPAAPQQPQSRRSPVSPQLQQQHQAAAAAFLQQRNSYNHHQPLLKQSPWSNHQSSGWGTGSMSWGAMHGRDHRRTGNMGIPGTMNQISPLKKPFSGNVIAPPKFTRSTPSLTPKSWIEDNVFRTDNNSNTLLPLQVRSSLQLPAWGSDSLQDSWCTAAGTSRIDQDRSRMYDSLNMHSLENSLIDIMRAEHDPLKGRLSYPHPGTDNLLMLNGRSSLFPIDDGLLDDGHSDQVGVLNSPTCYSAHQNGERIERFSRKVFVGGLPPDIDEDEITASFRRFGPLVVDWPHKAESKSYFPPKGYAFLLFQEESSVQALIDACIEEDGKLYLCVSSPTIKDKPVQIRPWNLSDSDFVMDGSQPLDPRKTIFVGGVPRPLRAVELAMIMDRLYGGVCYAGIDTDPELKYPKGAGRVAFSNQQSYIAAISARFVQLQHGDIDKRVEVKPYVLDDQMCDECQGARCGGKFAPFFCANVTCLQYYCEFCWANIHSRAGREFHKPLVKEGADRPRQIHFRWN
# UniProt P20674, whole entry, looked up: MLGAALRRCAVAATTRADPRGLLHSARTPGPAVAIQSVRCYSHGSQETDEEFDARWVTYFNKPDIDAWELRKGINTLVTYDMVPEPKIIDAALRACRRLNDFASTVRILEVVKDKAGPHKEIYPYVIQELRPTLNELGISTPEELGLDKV
# UniProt P53621: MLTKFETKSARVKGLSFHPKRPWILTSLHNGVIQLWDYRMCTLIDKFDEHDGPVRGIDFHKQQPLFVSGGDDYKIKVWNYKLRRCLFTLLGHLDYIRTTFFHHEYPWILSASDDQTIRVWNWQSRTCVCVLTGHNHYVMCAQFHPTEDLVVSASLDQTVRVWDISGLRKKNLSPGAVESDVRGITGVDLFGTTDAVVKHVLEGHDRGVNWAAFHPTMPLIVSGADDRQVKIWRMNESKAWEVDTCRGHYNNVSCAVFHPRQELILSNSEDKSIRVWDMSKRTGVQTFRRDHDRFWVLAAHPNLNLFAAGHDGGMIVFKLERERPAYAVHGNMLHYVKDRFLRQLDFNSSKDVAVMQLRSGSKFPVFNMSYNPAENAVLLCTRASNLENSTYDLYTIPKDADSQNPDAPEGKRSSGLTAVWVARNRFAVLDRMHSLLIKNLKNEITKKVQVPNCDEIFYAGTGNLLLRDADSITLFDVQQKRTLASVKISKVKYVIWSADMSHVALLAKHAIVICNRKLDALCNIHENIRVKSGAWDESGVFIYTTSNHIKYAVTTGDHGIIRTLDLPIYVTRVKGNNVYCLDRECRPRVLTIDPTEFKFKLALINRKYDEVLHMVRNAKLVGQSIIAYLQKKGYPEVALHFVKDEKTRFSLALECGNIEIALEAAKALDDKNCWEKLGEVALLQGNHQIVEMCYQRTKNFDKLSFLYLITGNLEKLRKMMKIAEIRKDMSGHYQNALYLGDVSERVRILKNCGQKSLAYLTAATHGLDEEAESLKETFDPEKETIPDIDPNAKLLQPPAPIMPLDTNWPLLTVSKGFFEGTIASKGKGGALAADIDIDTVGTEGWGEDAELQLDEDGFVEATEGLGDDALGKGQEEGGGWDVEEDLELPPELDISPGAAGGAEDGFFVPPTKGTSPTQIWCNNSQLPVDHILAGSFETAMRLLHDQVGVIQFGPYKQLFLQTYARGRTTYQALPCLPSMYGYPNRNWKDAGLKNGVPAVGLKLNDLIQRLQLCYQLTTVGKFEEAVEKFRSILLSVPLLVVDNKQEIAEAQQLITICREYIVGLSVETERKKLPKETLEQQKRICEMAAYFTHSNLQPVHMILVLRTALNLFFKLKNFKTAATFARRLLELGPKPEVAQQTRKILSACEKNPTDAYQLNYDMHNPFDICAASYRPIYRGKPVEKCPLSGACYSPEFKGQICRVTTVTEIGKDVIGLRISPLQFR
# UniProt P49747: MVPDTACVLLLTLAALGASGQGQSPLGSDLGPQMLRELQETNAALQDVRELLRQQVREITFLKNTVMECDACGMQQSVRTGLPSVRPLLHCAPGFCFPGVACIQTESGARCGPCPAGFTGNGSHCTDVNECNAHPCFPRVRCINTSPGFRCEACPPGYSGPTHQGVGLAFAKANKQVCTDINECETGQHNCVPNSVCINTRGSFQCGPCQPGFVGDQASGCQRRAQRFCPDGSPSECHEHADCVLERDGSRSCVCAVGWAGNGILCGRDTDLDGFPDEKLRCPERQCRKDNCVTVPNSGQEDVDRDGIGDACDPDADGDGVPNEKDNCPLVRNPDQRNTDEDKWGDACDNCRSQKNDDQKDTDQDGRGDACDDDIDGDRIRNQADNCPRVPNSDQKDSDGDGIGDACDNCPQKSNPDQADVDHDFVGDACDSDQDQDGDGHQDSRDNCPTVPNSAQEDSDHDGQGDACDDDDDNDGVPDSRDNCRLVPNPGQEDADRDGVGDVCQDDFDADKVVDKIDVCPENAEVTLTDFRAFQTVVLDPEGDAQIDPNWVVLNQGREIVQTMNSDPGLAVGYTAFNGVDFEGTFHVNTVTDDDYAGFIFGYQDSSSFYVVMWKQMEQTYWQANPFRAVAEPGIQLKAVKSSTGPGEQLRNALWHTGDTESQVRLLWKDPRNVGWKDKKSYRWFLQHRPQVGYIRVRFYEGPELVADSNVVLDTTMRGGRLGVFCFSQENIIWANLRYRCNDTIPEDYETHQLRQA
# UniProt Q9BWP8: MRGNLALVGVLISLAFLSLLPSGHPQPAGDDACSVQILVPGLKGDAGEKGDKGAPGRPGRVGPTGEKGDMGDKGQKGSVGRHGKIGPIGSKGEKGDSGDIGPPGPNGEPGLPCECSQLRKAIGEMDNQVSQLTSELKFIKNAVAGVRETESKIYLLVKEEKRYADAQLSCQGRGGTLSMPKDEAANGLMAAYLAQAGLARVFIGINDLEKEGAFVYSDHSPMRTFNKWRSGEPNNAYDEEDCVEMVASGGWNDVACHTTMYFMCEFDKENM
# UniProt Q9UBI1, whole entry, looked up: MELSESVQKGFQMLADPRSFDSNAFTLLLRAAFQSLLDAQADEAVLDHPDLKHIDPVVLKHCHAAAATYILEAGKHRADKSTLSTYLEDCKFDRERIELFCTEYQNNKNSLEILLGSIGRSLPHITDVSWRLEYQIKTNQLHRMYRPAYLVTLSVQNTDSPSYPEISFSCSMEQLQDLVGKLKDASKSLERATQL
# UniProt O75976: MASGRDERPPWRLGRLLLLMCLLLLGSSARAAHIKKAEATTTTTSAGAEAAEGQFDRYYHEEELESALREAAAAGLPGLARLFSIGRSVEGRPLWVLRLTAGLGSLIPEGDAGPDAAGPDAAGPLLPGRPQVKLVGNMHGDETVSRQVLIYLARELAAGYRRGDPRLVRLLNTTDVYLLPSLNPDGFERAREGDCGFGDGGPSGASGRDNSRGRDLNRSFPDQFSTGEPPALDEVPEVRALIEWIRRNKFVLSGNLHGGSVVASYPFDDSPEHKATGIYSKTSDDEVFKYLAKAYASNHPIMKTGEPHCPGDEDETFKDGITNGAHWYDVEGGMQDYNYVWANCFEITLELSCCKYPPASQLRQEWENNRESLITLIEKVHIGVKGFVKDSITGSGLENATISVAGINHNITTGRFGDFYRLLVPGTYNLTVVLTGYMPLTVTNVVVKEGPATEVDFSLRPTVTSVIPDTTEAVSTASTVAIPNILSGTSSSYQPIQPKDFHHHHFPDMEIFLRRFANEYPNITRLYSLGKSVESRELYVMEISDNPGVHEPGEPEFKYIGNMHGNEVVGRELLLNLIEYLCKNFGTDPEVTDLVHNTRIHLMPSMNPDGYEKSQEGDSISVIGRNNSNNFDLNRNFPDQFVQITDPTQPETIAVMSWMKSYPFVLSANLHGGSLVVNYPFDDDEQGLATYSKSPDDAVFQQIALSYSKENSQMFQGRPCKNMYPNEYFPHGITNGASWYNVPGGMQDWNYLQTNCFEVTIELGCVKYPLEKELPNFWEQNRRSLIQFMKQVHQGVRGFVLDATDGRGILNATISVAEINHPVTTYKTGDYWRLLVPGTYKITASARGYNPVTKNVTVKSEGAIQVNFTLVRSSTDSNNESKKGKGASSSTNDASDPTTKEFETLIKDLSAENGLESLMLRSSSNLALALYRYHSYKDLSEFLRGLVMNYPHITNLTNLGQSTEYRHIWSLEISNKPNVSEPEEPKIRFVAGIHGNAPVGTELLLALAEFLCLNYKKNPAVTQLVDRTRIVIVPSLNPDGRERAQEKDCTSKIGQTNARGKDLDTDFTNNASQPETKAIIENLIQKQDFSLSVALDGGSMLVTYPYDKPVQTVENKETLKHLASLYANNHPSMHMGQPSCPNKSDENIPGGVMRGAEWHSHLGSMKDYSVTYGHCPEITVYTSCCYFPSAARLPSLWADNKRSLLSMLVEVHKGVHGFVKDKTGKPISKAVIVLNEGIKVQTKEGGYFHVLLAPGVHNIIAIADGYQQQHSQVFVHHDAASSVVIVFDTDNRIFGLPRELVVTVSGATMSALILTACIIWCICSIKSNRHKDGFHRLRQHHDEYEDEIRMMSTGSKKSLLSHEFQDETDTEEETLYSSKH
# UniProt P41240: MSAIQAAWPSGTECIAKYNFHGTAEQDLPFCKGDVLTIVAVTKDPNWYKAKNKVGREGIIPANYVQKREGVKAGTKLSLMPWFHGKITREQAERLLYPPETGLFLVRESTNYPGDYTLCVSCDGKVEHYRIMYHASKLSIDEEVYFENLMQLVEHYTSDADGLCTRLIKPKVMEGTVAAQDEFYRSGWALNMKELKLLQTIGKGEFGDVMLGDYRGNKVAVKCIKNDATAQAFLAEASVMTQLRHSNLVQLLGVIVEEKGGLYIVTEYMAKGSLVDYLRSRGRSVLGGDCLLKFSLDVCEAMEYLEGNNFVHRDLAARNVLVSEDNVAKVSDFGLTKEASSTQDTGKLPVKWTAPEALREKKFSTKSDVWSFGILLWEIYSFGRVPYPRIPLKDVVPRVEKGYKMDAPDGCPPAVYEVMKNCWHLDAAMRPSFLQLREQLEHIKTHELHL
# This is one part of the list. Residues, ends and D or L forms follow the SMILES beside them. *: point of attachment. Cbz = O=C(OCc1ccccc1)*
# Key:
# Test in all cases: log2 fold change, soluble protein after heating vs DMSO (PISA); higher = thermal stabilisation; K562 cells, 10 uM, 30 min; active = over 0.2 and 3.5 SD of the protein, either way, in both replicates (recomputed)
# IRAK-1-4 Inhibitor I = compound: C1COCCN1CCN2C3=CC=CC=C3N=C2NC(=O)C4=CC(=CC=C4)[N+](=O)[O-] [IRAK-1-4 Inhibitor I]
# How it was run: (§1)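 Values are thermal stability changes relative to control samples and are taken from duplicates. They are stated as log2 fold changes. Before quantification by TMTpro 16plex LC-MS/MS with equalised channel sums, K562 cells at 2×10^6 cells/mL were treated with 10 μM compound for 30 min, heated in aliquots for 3 min across 48°C-58°C, pooled, extracted in PBS with 0.5% NP-40 at 4°C, and centrifuged at 21,000xg for 90 min to give the soluble supernatant.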
# ibrutinib = compound: C=CC(=O)N1CCC[C@@H](n2nc(-c3ccc(Oc4ccccc4)cc3)c3c(N)ncnc32)C1 [ibrutinib]
# How it was run: as §1
# [1] = compound: CC(=O)c1cnc2ccc(-c3cc(Cl)c(O)c(Cl)c3)nc2c1N[C@H]1CC[C@H](CN(C)C)CC1
# How it was run: as §1
# ralimetinib = compound: CC(C)(C)Cn1c(N)nc2ccc(-c3[nH]c(C(C)(C)C)nc3-c3ccc(F)cc3)nc21 [ralimetinib]
# How it was run: as §1
# [2] = compound: CC(C)(O)CC(=O)NCCn1ccc2ncnc(Nc3ccc(Oc4cccc(C(F)(F)F)c4)c(Cl)c3)c21
# How it was run: as §1
# [3] = compound: CC(C)C1=C2N=C(C=C(N2N=C1)NCC3=CC=CC=C3)NCCCCCCN
# How it was run: as §1
# [4] = compound: CC(C)C[C@@H](C=O)NC(=O)[C@H](CC(C)C)NC(=O)[C@H](CC(C)C)NC(=O)OCc1ccccc1
# How it was run: as §1
# pinometostat = compound: CC(C)N(C[C@H]1O[C@@H](n2cnc3c(N)ncnc32)[C@H](O)[C@@H]1O)[C@H]1C[C@@H](CCc2nc3cc(C(C)(C)C)ccc3[nH]2)C1 [pinometostat]
# How it was run: as §1
# [5] = compound: CC1=C(C(CC(=O)N1)C2=CC=C(C=C2)C(F)(F)F)C(=O)NC3=C(C=C4C(=C3)C=NN4)F
# How it was run: as §1
# [6] = compound: CC1=C(C2=C(C=C1)C(=O)C3=CC=CC=C3N2CCCN)C
# How it was run: as §1
Target,log2 fold change (IRAK-1-4 Inhibitor I),log2 fold change (ibrutinib),log2 fold change [1],log2 fold change (ralimetinib),log2 fold change [2],log2 fold change [3],log2 fold change [4],log2 fold change (pinometostat),log2 fold change [5],log2 fold change [6]
CRELD1 isoform 2 (UniProt Q96HD1),inactive: -0.174,inactive: -0.205,inactive: -0.066,inactive: -0.275,inactive: 0.074,inactive: 0.083,inactive: 0.299,inactive: 0.058,inactive: -0.103,inactive: 0.015
CSNK1D (UniProt P48730),inactive: -0.041,inactive: 0.002,active: 0.768,inactive: 0.216,inactive: -0.001,inactive: -0.138,inactive: 0.077,inactive: 0.13,–,inactive: 0.063
COMMD9 (UniProt Q9P000),inactive: -0.137,inactive: 0.009,inactive: -0.063,inactive: -0.071,inactive: -0.016,inactive: -0.057,inactive: -0.004,inactive: 0.003,inactive: 0.052,inactive: 0.254
CPNE1 (UniProt Q99829),inactive: 0.003,inactive: -0.025,inactive: 0.015,inactive: -0.073,inactive: -0.028,inactive: 0.025,inactive: -0.005,inactive: -0.023,inactive: -0.033,inactive: -0.031
CORO1B (UniProt Q9BR76),inactive: 0.014,inactive: -0.042,inactive: -0.019,inactive: 0.004,inactive: -0.007,inactive: -0.013,inactive: 0.038,inactive: -0.042,inactive: -0.015,inactive: 0.003
COX7A2L (UniProt O14548),inactive: 0.005,inactive: -0.016,inactive: -0.021,inactive: -0.049,inactive: -0.01,inactive: -0.055,inactive: 0.029,inactive: -0.017,inactive: 0.008,inactive: 0.06
CRYZ (UniProt Q08257),inactive: 0.028,inactive: 0.009,inactive: -0.001,inactive: -0.056,inactive: -0.036,inactive: 0.047,inactive: -0.01,inactive: -0.05,inactive: -0.012,inactive: 0.043
COPRS (UniProt Q9NQ92),inactive: 0.049,inactive: 0.032,inactive: 0.02,inactive: 0.018,inactive: 0.025,inactive: 0.042,inactive: -0.037,inactive: -0.085,inactive: 0.035,inactive: 0.092
COQ3 (UniProt Q9NZJ6),inactive: 0.009,inactive: 0.055,inactive: 0,inactive: -0.008,inactive: -0.108,inactive: 0.071,inactive: 0.049,inactive: 0.009,inactive: -0.049,inactive: 0.1
COPS7A (UniProt Q9UBW8),inactive: 0.055,inactive: 0.018,inactive: -0.023,inactive: -0.032,inactive: -0.06,inactive: 0.004,inactive: -0.002,inactive: -0.003,inactive: 0.002,inactive: -0.023
CSNK1G3 (UniProt Q9Y6M4),inactive: -0.183,inactive: -0.051,inactive: 0.062,inactive: 0.137,inactive: -0.001,inactive: -0.239,inactive: 0.073,inactive: 0.023,inactive: 0.026,inactive: 0.066
CPEB2 isoform 9 (UniProt Q7Z5Q1),inactive: 0.038,inactive: 0.111,inactive: -0.103,inactive: 0.005,inactive: 0.064,inactive: -0.207,inactive: 0.093,inactive: -0.028,–,inactive: 0.014
COX10 (UniProt Q12887),inactive: 0.01,inactive: 0.035,inactive: -0.066,inactive: -0.073,inactive: 0.108,inactive: -0.225,inactive: 0.163,inactive: 0.02,inactive: -0.122,inactive: 0.011
COX5A (UniProt P20674),inactive: 0.041,inactive: 0.008,inactive: -0.09,inactive: -0.053,inactive: -0.103,inactive: 0.058,inactive: -0.069,inactive: -0.042,–,inactive: 0.122
CRYM-AS1 (UniProt A6NIL9),inactive: 0.13,inactive: 0.172,inactive: -0.017,inactive: -0.063,inactive: -0.108,inactive: -0.088,inactive: 0.168,inactive: 0.054,–,inactive: -0.099
COPA isoform 2 (UniProt P53621),inactive: -0.005,inactive: -0.02,inactive: 0.01,inactive: -0.014,inactive: -0.009,inactive: 0.076,inactive: -0.029,inactive: 0.011,inactive: -0.003,inactive: 0.007
CPSF2 (UniProt Q9P2I0),inactive: -0.066,inactive: -0.071,inactive: 0.039,inactive: 0.028,inactive: -0.098,inactive: -0.047,inactive: 0.159,inactive: 0.131,inactive: 0.033,inactive: -0.039
COQ10B (UniProt Q9H8M1),inactive: -0.068,inactive: 0.2,–,inactive: -0.042,inactive: -0.149,–,inactive: 0.326,inactive: 0.091,–,–
COMP (UniProt P49747),inactive: 0.055,inactive: 0.278,inactive: 0.164,inactive: -0.024,–,inactive: -0.056,inactive: 0.114,inactive: -0.021,–,inactive: -0.437
CRKL (UniProt P46109),inactive: 0.035,inactive: -0.102,active: -1.24,inactive: -0.054,inactive: -0.004,inactive: 0.042,inactive: 0.057,inactive: -0.022,–,inactive: -0.008
COQ7 (UniProt Q99807),inactive: 0.08,inactive: 0.021,inactive: -0.064,inactive: -0.03,inactive: 0.01,inactive: -0.034,inactive: 0,inactive: -0.016,–,inactive: -0.035
COLEC11 isoform 10 (UniProt Q9BWP8),inactive: 0.194,inactive: -0.013,inactive: -0.032,–,inactive: -0.15,–,–,inactive: -0.072,inactive: 0.005,–
COMMD3 (UniProt Q9UBI1),inactive: -0.065,inactive: -0.086,inactive: -0.055,inactive: 0.121,–,–,inactive: -0.058,inactive: 0,inactive: 0.038,inactive: 0.11
CPD (UniProt O75976),inactive: -0.011,inactive: -0.018,inactive: -0.015,inactive: -0.03,inactive: -0.058,inactive: -0.126,inactive: 0.077,inactive: 0.002,–,inactive: -0.019
CSK (UniProt P41240),inactive: -0.016,inactive: 0.074,inactive: 0.111,inactive: 0.011,inactive: -0.034,inactive: -0.131,inactive: 0.031,inactive: 0,–,inactive: -0.011
CPSF6 isoform 2 (UniProt Q16630),inactive: -0.047,inactive: 0,active: -0.599,inactive: -0.017,inactive: 0.02,inactive: -0.029,inactive: -0.053,inactive: 0.004,–,inactive: 0.195
CSNK1A1 (UniProt P48729),inactive: -0.016,inactive: 0.015,inactive: -0.053,inactive: 0.026,inactive: -0.041,active: -0.25,inactive: 0.145,inactive: 0.112,–,inactive: 0.028

# 2 consecutive records out of the list so far, for reference:
Target,log2 fold change (IRAK-1-4 Inhibitor I),log2 fold change (ibrutinib),log2 fold change [1],log2 fold change (ralimetinib),log2 fold change [2],log2 fold change [3],log2 fold change [4],log2 fold change (pinometostat),log2 fold change [5],log2 fold change [6]
COMP (UniProt P49747),inactive: 0.055,inactive: 0.278,inactive: 0.164,inactive: -0.024,–,inactive: -0.056,inactive: 0.114,inactive: -0.021,–,inactive: -0.437
CRKL (UniProt P46109),inactive: 0.035,inactive: -0.102,active: -1.24,inactive: -0.054,inactive: -0.004,inactive: 0.042,inactive: 0.057,inactive: -0.022,–,inactive: -0.008
